Results taken from PMC6635409.
Results are given in words; binding and its absence hold for the method and conditions named. Binding seen in cells or lysates may run through a third protein. Some binding calls cover weakened binding; strength is not graded here. Values belong to the substance of their own block, whether it stands above or below them.

By UniProt entry, the sequences of proteins in these tests, tags left out. Residues count along the entry.
UniProt Q9UGM1, residues 23-479: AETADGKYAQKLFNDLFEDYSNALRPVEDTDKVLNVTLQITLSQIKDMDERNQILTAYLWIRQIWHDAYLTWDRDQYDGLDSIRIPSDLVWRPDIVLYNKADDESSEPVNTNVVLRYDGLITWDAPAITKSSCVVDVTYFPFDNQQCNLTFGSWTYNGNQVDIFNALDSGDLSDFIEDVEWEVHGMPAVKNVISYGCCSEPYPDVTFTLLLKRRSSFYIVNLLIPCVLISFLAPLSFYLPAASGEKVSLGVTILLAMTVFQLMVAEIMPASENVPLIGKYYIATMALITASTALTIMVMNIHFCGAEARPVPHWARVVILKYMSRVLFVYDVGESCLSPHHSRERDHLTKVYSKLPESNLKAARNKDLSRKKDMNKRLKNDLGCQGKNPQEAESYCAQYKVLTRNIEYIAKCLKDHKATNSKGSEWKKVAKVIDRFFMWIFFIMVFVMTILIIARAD
UniProt P53350: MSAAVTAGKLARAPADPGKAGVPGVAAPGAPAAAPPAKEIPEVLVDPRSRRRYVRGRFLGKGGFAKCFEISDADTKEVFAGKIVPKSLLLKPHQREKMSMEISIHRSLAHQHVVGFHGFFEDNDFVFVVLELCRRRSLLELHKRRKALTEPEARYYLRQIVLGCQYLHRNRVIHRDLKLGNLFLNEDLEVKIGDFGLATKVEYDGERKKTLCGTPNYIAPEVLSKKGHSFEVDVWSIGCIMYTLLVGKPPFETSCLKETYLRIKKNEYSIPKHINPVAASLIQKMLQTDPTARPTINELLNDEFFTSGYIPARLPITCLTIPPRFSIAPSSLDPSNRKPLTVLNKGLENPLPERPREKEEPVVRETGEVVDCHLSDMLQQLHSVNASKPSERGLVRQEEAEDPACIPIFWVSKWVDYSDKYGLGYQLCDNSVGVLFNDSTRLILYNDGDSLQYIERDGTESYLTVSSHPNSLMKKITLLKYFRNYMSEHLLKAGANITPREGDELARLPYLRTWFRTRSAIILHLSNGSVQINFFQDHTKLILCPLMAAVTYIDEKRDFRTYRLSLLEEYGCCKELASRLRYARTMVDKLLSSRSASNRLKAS

Tests used:
ERBB2-YFP (human) [1] = biological target: ERBB2-YFP (human) (UniProt P04626); experiment: FRET or BRET; FLIM (two-photon) in live MDA-MB-231 cells co-transfected with ERBB2-YFP/CHRNA9-CFP, starved 24 h; before nicotine and after washing with PBS
ERBB2-YFP (human) [2] = biological target: ERBB2-YFP (human) (UniProt P04626); experiment: FRET or BRET; FLIM (two-photon) in live MDA-MB-231 cells co-transfected with ERBB2-YFP/CHRNA9-CFP, starved 24 h; during treatment with 10 µM nicotine for 30 min
[3] = biological target: T1, SLC16A7 (human (endogenous in MDA-MB-231 and A549)) (UniProt O60669); experiment: co-IP; endogenous proteins in MDA-MB-231 and A549 cells; SLC16A7 and four interacting candidates, IP ratio (IPR) against input, threshold >3% in both reciprocal IPs
T1 sequence: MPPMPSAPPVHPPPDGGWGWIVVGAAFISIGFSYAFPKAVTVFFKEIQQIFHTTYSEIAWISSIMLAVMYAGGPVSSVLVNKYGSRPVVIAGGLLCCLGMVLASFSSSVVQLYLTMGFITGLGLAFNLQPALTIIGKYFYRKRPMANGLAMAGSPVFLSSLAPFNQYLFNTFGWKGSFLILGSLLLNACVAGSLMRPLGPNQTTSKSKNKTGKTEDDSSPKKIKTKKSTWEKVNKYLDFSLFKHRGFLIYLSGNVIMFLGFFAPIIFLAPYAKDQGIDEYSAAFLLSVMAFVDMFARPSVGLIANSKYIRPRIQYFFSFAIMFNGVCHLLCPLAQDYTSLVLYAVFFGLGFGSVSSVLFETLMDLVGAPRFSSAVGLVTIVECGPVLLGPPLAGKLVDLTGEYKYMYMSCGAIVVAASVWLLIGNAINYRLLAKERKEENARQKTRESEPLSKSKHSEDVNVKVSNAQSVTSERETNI

[4] = biological target: ERBB2 (human (endogenous in BT474, A549 and clinical breast tumors)) (UniProt P04626); experiment: FRET or BRET; clinical breast tumors of HER2-enriched and triple-negative subtypes, CHRNA9/ERBB2 analyzed by FRET
[5] = biological target: ERBB2 (human (endogenous in BT474, A549 and clinical breast tumors)) (UniProt P04626); experiment: co-IP; endogenous proteins in BT474 (also A549) cells starved 24 h; ERBB2 antibody/bead complex precipitated and immunoblotted for CHRNA9; nicotine 15 min (dose-dependent, up to 10 µM) with or without bupropion pretreatment 30 min (0, 0.1, 1 µM)
ERBB2-Nluc (human) = ERBB2-Nluc (human) (UniProt P04626); experiment: split reporter; split luciferase complementation; MDA-MB-231 cells co-transfected with CHRNA9-Cluc/ERBB2-Nluc, inoculated into mammary fat pads of nude mice; IVIS imaging before and 30 min after 100 µg kg^-1 oral nicotine

binding (ERBB2-YFP (human) [1]): binds
Substance: CHRNA9-CFP (from UniProt Q9UGM1 23-479) (receptor)
binding (ERBB2-YFP (human) [2]): no binding (condition: with 10 μM nicotine)

binding [3]: binds
Substance: PLK1 (from UniProt P53350 1-603) (enzyme)

binding [4]: binds
binding [5]: binds
Substance: nicotinic acetylcholine receptor subunit α9 (CHRNA9) (from UniProt Q9UGM1 23-479)

binding (ERBB2-Nluc (human)): binds
Substance: CHRNA9-Cluc (from UniProt Q9UGM1 23-479) (receptor)
